Measurements taken from patent publication US20100204091A1.
Results are given in words; binding and its absence hold for the method and conditions named. Binding seen in cells or lysates may run through a third protein. Some entries that bind do so weakly or less than the wild type.

Amino acid sequences for entries named in this document (tags omitted).
UniProt Q99558: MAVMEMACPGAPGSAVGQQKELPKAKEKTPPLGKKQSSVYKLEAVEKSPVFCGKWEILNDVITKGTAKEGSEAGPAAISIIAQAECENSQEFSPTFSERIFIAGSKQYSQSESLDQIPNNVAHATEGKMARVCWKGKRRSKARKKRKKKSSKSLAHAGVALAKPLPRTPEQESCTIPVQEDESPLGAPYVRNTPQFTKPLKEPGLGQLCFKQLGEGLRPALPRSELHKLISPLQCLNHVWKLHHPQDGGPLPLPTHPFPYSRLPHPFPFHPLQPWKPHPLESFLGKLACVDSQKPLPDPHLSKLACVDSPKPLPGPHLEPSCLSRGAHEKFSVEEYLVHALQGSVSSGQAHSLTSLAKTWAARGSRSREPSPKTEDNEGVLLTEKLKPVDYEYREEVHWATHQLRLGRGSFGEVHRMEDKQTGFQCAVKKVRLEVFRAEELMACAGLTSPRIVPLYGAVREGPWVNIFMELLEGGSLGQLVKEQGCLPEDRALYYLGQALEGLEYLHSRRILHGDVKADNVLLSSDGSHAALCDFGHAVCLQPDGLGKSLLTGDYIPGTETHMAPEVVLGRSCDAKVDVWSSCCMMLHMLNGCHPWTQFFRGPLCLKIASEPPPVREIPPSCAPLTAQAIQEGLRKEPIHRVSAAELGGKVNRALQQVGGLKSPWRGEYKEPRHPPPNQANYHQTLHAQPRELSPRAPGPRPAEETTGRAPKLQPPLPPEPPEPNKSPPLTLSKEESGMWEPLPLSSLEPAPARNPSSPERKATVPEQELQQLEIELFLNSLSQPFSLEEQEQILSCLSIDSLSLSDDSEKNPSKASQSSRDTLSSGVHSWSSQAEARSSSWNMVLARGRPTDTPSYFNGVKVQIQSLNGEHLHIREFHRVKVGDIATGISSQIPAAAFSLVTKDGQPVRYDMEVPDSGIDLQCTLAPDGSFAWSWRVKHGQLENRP

Tests used:
SIVA2 (human) [1] = molecular target: T1, SIVA2 (human) (UniProt O15304); test: co-immunoprecipitation from transiently transfected HEK-293T cells
T1 sequence: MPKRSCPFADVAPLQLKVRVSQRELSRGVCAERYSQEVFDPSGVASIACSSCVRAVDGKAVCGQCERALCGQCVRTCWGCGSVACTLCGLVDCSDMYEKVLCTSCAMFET

SIVA2 (human) [2] = molecular target: T1, SIVA2 (human); test: co-precipitation of NIK, SIVA2 and TRAF3 from transiently transfected HEK 293T cells (anti FLAG IP of SIVA2, anti-TRAF3 blot)
SIVA2 (human) [3] = molecular target: T1, SIVA2 (human); test: co-immunoprecipitation with anti-NIK from HeLa cells, SIVA2 blot

binding (SIVA2 (human) [1]): binds | binding (SIVA2 (human) [2]): binds | binding (SIVA2 (human) [3]): binds
Substance: NF-κB-inducing kinase, NIK, (MAP3K14) (from UniProt Q99558 1-947) (enzyme)
